Reference: article PMC12758526
These are yes or no findings as the source states them, for the method shown. Binding seen in cells or lysates may run through a third protein. These calls come from enrichment with a bait or labelling near it, and not all partners need be listed. Tags and fused reporters may be left off the sequences shown.

Molecular target: T1, SerRS^T-mCherry (seryl-tRNA synthetase variant, mCherry tag inserted at the endogenous serS^T locus) (E. coli (endogenous in KLY SerS^T)) (UniProt P0A8L1)
T1 sequence: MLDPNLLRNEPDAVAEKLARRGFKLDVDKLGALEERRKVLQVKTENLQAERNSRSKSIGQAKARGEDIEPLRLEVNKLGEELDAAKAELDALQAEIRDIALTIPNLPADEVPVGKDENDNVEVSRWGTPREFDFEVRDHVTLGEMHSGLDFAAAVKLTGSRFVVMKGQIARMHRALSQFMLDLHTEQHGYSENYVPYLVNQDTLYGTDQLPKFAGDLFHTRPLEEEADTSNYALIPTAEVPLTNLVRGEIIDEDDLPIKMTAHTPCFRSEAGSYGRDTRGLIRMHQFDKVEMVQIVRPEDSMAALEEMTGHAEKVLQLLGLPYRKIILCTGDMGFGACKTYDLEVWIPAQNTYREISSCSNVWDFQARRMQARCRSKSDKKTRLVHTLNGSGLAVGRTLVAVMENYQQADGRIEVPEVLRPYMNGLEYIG
Assay: affinity purification with mass spectrometry; Anti-mCherry nanobody immunomagnetic beads on lysates of strains with SerRS-mCherry at the endogenous locus; cultures at OD600 ~0.2 (upon serine depletion); lysis buffer 50 mM NaCl, 20 mM tris-HCl pH 7.4, with RNase inhibitor and DNase I; quantitative mass spectrometry of the precipitates

B1: HrpA, ATP-dependent RNA helicase of the DEAH/RHA family (wild-type allele) (enzyme, UniProt P43329 1-1300)
chain: MTEQQKLTFTALQQRLDSLMLRDRLRFSRRLHGVKKVKNPDAQQAIFQEMAKEIDQAAGKVLLREAARPEITYPDNLPVSQKKQDILEAIRDHQVVIVAGETGSGKTTQLPKICMELGRGIKGLIGHTQPRRLAARTVANRIAEELKTEPGGCIGYKVRFSDHVSDNTMVKLMTDGILLAEIQQDRLLMQYDTIIIDEAHERSLNIDFLLGYLKELLPRRPDLKIIITSATIDPERFSRHFNNAPIIEVSGRTYPVEVRYRPIVEEADDTERDQLQAIFDAVDELSQESHGDILIFMSGEREIRDTADALNKLNLRHTEILPLYARLSNSEQNRVFQSHSGRRIVLATNVAETSLTVPGIKYVIDPGTARISRYSYRTKVQRLPIEPISQASANQRKGRCGRVSEGICIRLYSEDDFLSRPEFTDPEILRTNLASVILQMTALGLGDIAAFPFVEAPDKRNIQDGVRLLEELGAITTDEQASAYKLTPLGRQLSQLPVDPRLARMVLEAQKHGCVREAMIITSALSIQDPRERPMDKQQASDEKHRRFHDKESDFLAFVNLWNYLGEQQKALSSNAFRRLCRTDYLNYLRVREWQDIYTQLRQVVKELGIPVNSEPAEYREIHIALLTGLLSHIGMKDADKQEYTGARNARFSIFPGSGLFKKPPKWVMVAELVETSRLWGRIAARIDPEWVEPVAQHLIKRTYSEPHWERAQGAVMATEKVTVYGLPIVAARKVNYSQIDPALCRELFIRHALVEGDWQTRHAFFRENLKLRAEVEELEHKSRRRDILVDDETLFEFYDQRISHDVISARHFDSWWKKVSRETPDLLNFEKSMLIKEGAEKISKLDYPNFWHQGNLKLRLSYQFEPGADADGVTVHIPLPLLNQVEESGFEWQIPGLRRELVIALIKSLPKPVRRNFVPAPNYAEAFLGRVKPLELPLLDSLERELRRMTGVTVDREDWHWDQVPDHLKITFRVVDDKNKKLKEGRSLQDLKDALKGKVQETLSAVADDGIEQSGLHIWSFGQLPESYEQKRGNYKVKAWPALVDERDSVAIKLFDNPLEQKQAMWNGLRRLLLLNIPSPIKYLHEKLPNKAKLGLYFNPYGKVLELIDDCISCGVDKLIDANGGPVWTEEGFAALHEKVRAELNDTVVDIAKQVEQILTAVFNINKRLKGRVDMTMALGLSDIKAQMGGLVYRGFVTGNGFKRLGDTLRYLQAIEKRLEKLAVDPHRDRAQMLKVENVQQAWQQWINKLPPARREDEDVKEIRWMIEELRVSYFAQQLGTPYPISDKRILQAMEQISG
- binding: binds
